PubChem BioAssay AID1224826, NIAID – 2016

Assay: 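Knock-downs that raise or lower Tnf reporter signal after endotoxin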 (primary screen)
Cells: RAW264.7 G9 macrophages from mouse bearing reporters for p65 (GFP) and the Tnf promoter (mCherry)
Knock-down reagent: siRNA pool against mouse genes, 100 nM
Timing: 16 h of LPS stimulation, after 2 days of siRNA transfection
Challenge: bacterial lipopolysaccharide (Salmonella minnesota R595), 10 ng/ml
Measured: 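Nuclear mCherry signal of the Tnf promoter reporter measured by imaging after background removal, scaled to each plate median and turned into robust z-scores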
Scale: Tnf reporter robust z-score: higher = stronger Tnf promoter reporter signal after LPS
Call rule: 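a well counts as active at a score of -1.3 or below (Tlr4 knock-down control median) or above 3 (raised signal); controls and wells holding fewer than 50 cells are excluded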
Meaning of the calls: active = Tnf reporter clearly lowered or raised; inactive = no clear change in Tnf reporter
This is a random part of about 17,000 deposited reagents. About 1,110 of them (6.6%) were called active. 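Active means lowered or raised reporter signal; replicate intensities are raw and not normalised per plate.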 Entries without a mark were called inactive. Not all columns of the deposit are shown. Reagent sequences are not shown.

With knock-down of Trim28 [SID315469721] the results were Tnf reporter robust z-score -1.57 (active); fewer than 50 cells in well enough cells in well.
Against Tomm20 [SID315473332], the entry reads Tnf reporter robust z-score -0.74; fewer than 50 cells in well enough cells in well.
With knock-down of P2rx2 [SID315478906] the results were Tnf reporter robust z-score 0.44; fewer than 50 cells in well enough cells in well.
With knock-down of Eps15l1 [SID315466541] the results were Tnf reporter robust z-score 1.55; fewer than 50 cells in well enough cells in well.
Pla2g2c [SID315468562] gave Tnf reporter robust z-score -1.29; fewer than 50 cells in well enough cells in well.
Silencing of Trap1a [SID315469823] came out at: fewer than 50 cells in well fewer than 50 cells per well; well left out of calls.
Knock-down of Slc6a8 [SID315476350] gave: Tnf reporter robust z-score 0.37; fewer than 50 cells in well enough cells in well.
Mrpl9 [SID315475582] scored Tnf reporter robust z-score 0.86; fewer than 50 cells in well enough cells in well.
With knock-down of Ggn [SID315479716], the record shows Tnf reporter robust z-score -1.51 (active); fewer than 50 cells in well enough cells in well.
With knock-down of Or2ag1b [SID315480126], the screen gave fewer than 50 cells in well fewer than 50 cells per well; well left out of calls.
Ttll9 [SID315475027] gave Tnf reporter robust z-score 6.36 (active); fewer than 50 cells in well enough cells in well.
Mgat4d [SID315473095] scored Tnf reporter robust z-score -0.25; fewer than 50 cells in well enough cells in well.
